{"source": "PubChem BioAssay AID1224828 (NIAID, 2016)", "screen": "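Regulators linking TLR4 signalling to p65 nuclear translocation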 (primary screen)", "cell system": "mouse RAW264.7 G9 macrophage reporter cells (GFP-p65, Tnf promoter-mCherry)", "reagent": "siRNA pool against mouse genes, 100 nM", "duration": "2 days siRNA transfection, then 40 min LPS before fixation", "challenge": "LPS (Salmonella minnesota R595) at 10 ng/ml", "detection": "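Imaged p65 nuclear translocation ratio, normalised to the plate median, converted to robust z-scores and averaged across two replicates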", "direction": "p65 translocation robust z-score: higher = more nuclear NF-kappaB p65 after LPS than the plate median; nuclear/cytoplasmic p65 ratio: higher = more nuclear NF-kappaB p65", "hit rule": "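Active if robust z is above 3.3 (negative regulators) or below -1.56, the Tlr4 control median (positive regulators); activity score 50 or more; control wells not called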", "meaning of the calls": "active = hit (p65 shift raised or lowered); inactive = no clear change", "note": "This is an unselected part of about 17,000 reagents tested. 762 of all reagents (4.5%) count as active. 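Active calls include both raised and lowered p65 entry, mostly lowered; wells with fewer than 50 cells lack a z-score.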 Raw values vary from plate to plate and are shown uncorrected. Unmarked entries are inactive."}
{"target gene":"Stard4","PubChem SID":"SID315477170","p65 translocation robust z-score":-0.18,"nuclear/cytoplasmic p65 ratio, rep 1":1.41,"nuclear/cytoplasmic p65 ratio, rep 2":1.2,"low cell count flag":"enough cells to score"}
{"target gene":"Kif24","PubChem SID":"SID315476808","p65 translocation robust z-score":1.55,"nuclear/cytoplasmic p65 ratio, rep 1":1.68,"nuclear/cytoplasmic p65 ratio, rep 2":1.72,"low cell count flag":"enough cells to score"}
{"target gene":"Rasl2-9","PubChem SID":"SID315468905","p65 translocation robust z-score":1.5,"nuclear/cytoplasmic p65 ratio, rep 1":1.41,"nuclear/cytoplasmic p65 ratio, rep 2":1.38,"low cell count flag":"enough cells to score"}
{"target gene":"Asb7","PubChem SID":"SID315477094","p65 translocation robust z-score":"-1.8 (active)","nuclear/cytoplasmic p65 ratio, rep 1":1.22,"nuclear/cytoplasmic p65 ratio, rep 2":1.37,"low cell count flag":"enough cells to score"}
{"target gene":"Cplx3","PubChem SID":"SID315479251","p65 translocation robust z-score":2.82,"nuclear/cytoplasmic p65 ratio, rep 1":2.08,"nuclear/cytoplasmic p65 ratio, rep 2":2.02,"low cell count flag":"enough cells to score"}
{"target gene":"Kit","PubChem SID":"SID315467636","p65 translocation robust z-score":0.23,"nuclear/cytoplasmic p65 ratio, rep 1":1.74,"nuclear/cytoplasmic p65 ratio, rep 2":1.4,"low cell count flag":"enough cells to score"}
{"target gene":"Gspt1","PubChem SID":"SID315467051","p65 translocation robust z-score":-0.14,"nuclear/cytoplasmic p65 ratio, rep 1":1.45,"nuclear/cytoplasmic p65 ratio, rep 2":1.32,"low cell count flag":"enough cells to score"}
{"target gene":"Dgkz","PubChem SID":"SID315476442","nuclear/cytoplasmic p65 ratio, rep 1":1.71,"nuclear/cytoplasmic p65 ratio, rep 2":1.35,"low cell count flag":"fewer than 50 cells per well; well left out of scoring"}
{"target gene":"Idi1","PubChem SID":"SID315481112","p65 translocation robust z-score":0.72,"nuclear/cytoplasmic p65 ratio, rep 1":1.46,"nuclear/cytoplasmic p65 ratio, rep 2":1.54,"low cell count flag":"enough cells to score"}
{"target gene":"Hdgfl3","PubChem SID":"SID315470731","p65 translocation robust z-score":-0.29,"nuclear/cytoplasmic p65 ratio, rep 1":1.71,"nuclear/cytoplasmic p65 ratio, rep 2":1.4,"low cell count flag":"enough cells to score"}
{"target gene":"Szt2","PubChem SID":"SID315478807","p65 translocation robust z-score":0.76,"nuclear/cytoplasmic p65 ratio, rep 1":1.45,"nuclear/cytoplasmic p65 ratio, rep 2":1.63,"low cell count flag":"enough cells to score"}
{"target gene":"Stk31","PubChem SID":"SID315475471","p65 translocation robust z-score":1.36,"nuclear/cytoplasmic p65 ratio, rep 1":1.89,"nuclear/cytoplasmic p65 ratio, rep 2":1.57,"low cell count flag":"enough cells to score"}
{"target gene":"Cgref1","PubChem SID":"SID315473571","p65 translocation robust z-score":0.13,"nuclear/cytoplasmic p65 ratio, rep 1":1.28,"nuclear/cytoplasmic p65 ratio, rep 2":1.39,"low cell count flag":"enough cells to score"}
{"target gene":"Slc2a12","PubChem SID":"SID315481702","nuclear/cytoplasmic p65 ratio, rep 1":0,"nuclear/cytoplasmic p65 ratio, rep 2":1.49,"low cell count flag":"fewer than 50 cells per well; well left out of scoring"}
{"target gene":"Kdelr3","PubChem SID":"SID315476508","p65 translocation robust z-score":1.24,"nuclear/cytoplasmic p65 ratio, rep 1":1.61,"nuclear/cytoplasmic p65 ratio, rep 2":1.57,"low cell count flag":"enough cells to score"}
{"target gene":"Wwox","PubChem SID":"SID315475707","p65 translocation robust z-score":0.07,"nuclear/cytoplasmic p65 ratio, rep 1":1.62,"nuclear/cytoplasmic p65 ratio, rep 2":1.42,"low cell count flag":"enough cells to score"}
{"target gene":"Cep70","PubChem SID":"SID315473420","p65 translocation robust z-score":-0.59,"nuclear/cytoplasmic p65 ratio, rep 1":1.38,"nuclear/cytoplasmic p65 ratio, rep 2":1.41,"low cell count flag":"enough cells to score"}
{"target gene":"Bhlhe23","PubChem SID":"SID315477120","nuclear/cytoplasmic p65 ratio, rep 1":1.22,"nuclear/cytoplasmic p65 ratio, rep 2":1.51,"low cell count flag":"fewer than 50 cells per well; well left out of scoring"}
{"target gene":"F5","PubChem SID":"SID315466606","p65 translocation robust z-score":1.16,"nuclear/cytoplasmic p65 ratio, rep 1":1.64,"nuclear/cytoplasmic p65 ratio, rep 2":1.5,"low cell count flag":"enough cells to score"}
{"target gene":"Surf4","PubChem SID":"SID315469535","p65 translocation robust z-score":0.94,"nuclear/cytoplasmic p65 ratio, rep 1":1.53,"nuclear/cytoplasmic p65 ratio, rep 2":1.35,"low cell count flag":"enough cells to score"}
{"target gene":"Dhrs7b","PubChem SID":"SID315478033","p65 translocation robust z-score":1.02,"nuclear/cytoplasmic p65 ratio, rep 1":1.65,"nuclear/cytoplasmic p65 ratio, rep 2":2.02,"low cell count flag":"enough cells to score"}
{"target gene":"Bop1","PubChem SID":"SID315465666","p65 translocation robust z-score":-0.25,"nuclear/cytoplasmic p65 ratio, rep 1":1.39,"nuclear/cytoplasmic p65 ratio, rep 2":1.49,"low cell count flag":"enough cells to score"}
{"target gene":"Nkx2-3","PubChem SID":"SID315468181","p65 translocation robust z-score":-0.37,"nuclear/cytoplasmic p65 ratio, rep 1":1.41,"nuclear/cytoplasmic p65 ratio, rep 2":1.36,"low cell count flag":"enough cells to score"}
{"target gene":"Stx12","PubChem SID":"SID315476217","p65 translocation robust z-score":-0.71,"nuclear/cytoplasmic p65 ratio, rep 1":1.31,"nuclear/cytoplasmic p65 ratio, rep 2":1.16,"low cell count flag":"enough cells to score"}
{"target gene":"Parp12","PubChem SID":"SID315479703","nuclear/cytoplasmic p65 ratio, rep 1":1.18,"nuclear/cytoplasmic p65 ratio, rep 2":1.15,"low cell count flag":"fewer than 50 cells per well; well left out of scoring"}
{"target gene":"Zbtb25","PubChem SID":"SID315476858","p65 translocation robust z-score":0.4,"nuclear/cytoplasmic p65 ratio, rep 1":1.59,"nuclear/cytoplasmic p65 ratio, rep 2":1.54,"low cell count flag":"enough cells to score"}
{"target gene":"Neil2","PubChem SID":"SID315481832","p65 translocation robust z-score":2.88,"nuclear/cytoplasmic p65 ratio, rep 1":2.04,"nuclear/cytoplasmic p65 ratio, rep 2":1.97,"low cell count flag":"enough cells to score"}

Not a retest: an excerpt of the list.
{"target gene":"Dgkz","PubChem SID":"SID315476442","nuclear/cytoplasmic p65 ratio, rep 1":1.71,"nuclear/cytoplasmic p65 ratio, rep 2":1.35,"low cell count flag":"fewer than 50 cells per well; well left out of scoring"}
{"target gene":"Idi1","PubChem SID":"SID315481112","p65 translocation robust z-score":0.72,"nuclear/cytoplasmic p65 ratio, rep 1":1.46,"nuclear/cytoplasmic p65 ratio, rep 2":1.54,"low cell count flag":"enough cells to score"}
